Results are given in words; binding and its absence hold for the method and conditions named. Some results given as binding are weak or reduced against the parent protein; the word gives no strength. Sequences can lack the tags named with a protein.

The values below come from paper PMC6886295, “The iron–sulfur‐containing HypC‐HypD scaffold complex of the [NiFe]‐hydrogenase maturation machinery is an ATPase” (FEBS Open Bio, 2019).

Holding throughout (test): co-purification (Strep-tag affinity purification); Strep-tagged HypC or HybG co-produced with HypD in E. coli BEF314 or MC4100; complexes purified under anaerobic conditions by the Strep-tag as described in ref. 8
Assay [1] deals with T1, HypC_(strep) (Escherichia coli) (UniProt P0AAM3).
T1 sequence: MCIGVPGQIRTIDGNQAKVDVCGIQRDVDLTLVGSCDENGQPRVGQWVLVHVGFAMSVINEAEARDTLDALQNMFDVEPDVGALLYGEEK

The target of assay [2] is T2, HybG_(strep) (Escherichia coli) (UniProt P0AAM7).
T2 sequence: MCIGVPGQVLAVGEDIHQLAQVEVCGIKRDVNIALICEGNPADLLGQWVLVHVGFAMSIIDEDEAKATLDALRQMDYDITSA

In assay [3] the target is T3, HypCC2A (Escherichia coli) (UniProt P0AAM3).
T3 sequence: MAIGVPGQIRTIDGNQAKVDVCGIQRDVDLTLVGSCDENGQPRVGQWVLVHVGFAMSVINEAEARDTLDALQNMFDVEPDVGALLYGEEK

B1: HypE (protein, UniProt P24193 1-336)
chain: MNNIQLAHGSGGQAMQQLINSLFMEAFANPWLAEQEDQARLDLAQLVAEGDRLAFSTDSYVIDPLFFPGGNIGKLAICGTANDVAVSGAIPRYLSCGFILEEGLPMETLKAVVTSMAETARAAGIAIVTGDTKVVQRGAVDKLFINTAGMGAIPANIHWGAQTLTAGDVLLVSGTLGDHGATILNLREQLGLDGELVSDCAVLTPLIQTLRDIPGVKALRDATRGGVNAVVHEFAAACGCGIELSEAALPVKPAVRGVCELLGLDALNFANEGKLVIAVERNAAEQVLAALHSHPLGKDAALIGEVVERKGVRLAGLYGVKRTLDLPHAEPLPRIC
As for B1, the binding entry in assay [1] and in assay [2] was “binds” in each case.

B2: HypD (untagged, co-purified with Strep-tagged HypC or HybG) (protein, UniProt P24192 1-373)
chain: MRFVDEYRAPEQVMQLIEHLRERASHLSYTAERPLRIMEVCGGHTHAIFKFGLDQLLPENVEFIHGPGCPVCVLPMGRIDTCVEIASHPEVIFCTFGDAMRVPGKQGSLLQAKARGADVRIVYSPMDALKLAQENPTRKVVFFGLGFETTMPTTAITLQQAKARDVQNFYFFCQHITLIPTLRSLLEQPDNGIDAFLAPGHVSMVIGTDAYNFIASDFHRPLVVAGFEPLDLLQGVVMLVQQKIAAHSKVENQYRRVVPDAGNLLAQQAIADVFCVNGDSEWRGLGVIESSGVHLTPDYQRFDAEAHFRPAPQQVCDDPRARCGEVLTGKCKPHQCPLFGNTCNPQTAFGALMVSSEGACAAWYQYRQQESEA
For B2, the binding entry in assay [3], in assay [1] and in assay [2] was “binds” each time.
